At least one compound was matched to its structure with a doubt left.
Tested on: glucocorticoid receptor, GR
Assay: GRE-dependent luciferase reporter p(GRE)2-50-luc in A549 cells
Format: cell-based
Conditions: DEX 1 μM, CpdA 10 μM before DEX

## C[C@@H]1C[C@H]2[C@@H]3CCC4=CC(=O)C=C[C@]4(C)[C@@]3(F)[C@@H](O)C[C@]2(C)[C@@]1(O)C(=O)CO [DEX, dexamethasone, reference compound]
  GRE-dependent reporter gene activity, reference compounds: able to activate the reporter gene
